# Data: PubChem BioAssay AID445 (National Center for Advancing Translational Sciences (NCATS), 2006)
# Where “and” joins values, the source holds several entries; their conditions need not be identical. Equal values may be shown once. The list shows a part of the results. Shown are side measurements of this screen, not its main read-out; they come without a call. The list favours compounds with an active or inconclusive main result. Potencies come from curve fits of mixed quality, noted in brackets.
# Test: IkB Signaling
# Conditions: ABC-DLBCL IkBa-CBG/CBR dual luciferase ratio (green luciferase fused to IkBa over red control in OCI-Ly3 lymphoma cells), 4 h
# Outline: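 Luminescence ratio of IκBα-fused green versus native red beetle luciferase in OCI-Ly3 cells, 4 h post-doxycycline with compound; red signal alone, scaled from basal (0%) to zero light (-100%), flagged nonspecific or cytotoxic effects.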
# [1] = measured here: control luc red channel unless noted
# [2] = measured here: IkB-luc green channel
# [3] = measured here: control luc red channel
smiles,measurement,setting,value
Nc1c(C(=O)Nc2ccccc2Cl)nnn1Cc1cccc(Cl)c1,AC50,[1],"0.794 µM [falling, full curve]"
CCNc1nc2c(c(=O)n(C)c(=O)n2C)n1CC(O)COc1ccccc1 (stereo not drawn),AC50,[1],"25.1 µM [falling, partial curve]"
CCOC(=O)C1=C(O)CCn2c1nc1ccccc12,AC50,[1],"10 µM [falling, partial curve]"
O=C(NCc1cccc(Br)c1)c1ccc(-n2cnc3cccnc32)cc1,AC50,[1],"25.1 µM [falling, single point]"
Cc1ccc(-n2ncc3c(N4CCC(C)CC4)ncnc32)cc1C,AC50,[1],"12.6 µM [falling, partial curve]"
Cc1cccc(-c2noc(CNC(=O)c3ccc(C)cc3C)n2)c1,AC50,[1],"31.6 µM [falling, single point]"
CCCCC(=O)Nc1cccc(NC(=O)c2ccc(Br)o2)c1,AC50,[1],"12.6 µM [falling, partial curve]"
CCC1CCCCN1C(=O)CSc1nc(N)c(NC(=O)c2ccco2)c(=O)[nH]1 (stereo not drawn),AC50,[1],"7.94 µM [falling, partial curve]"
C[n+]1cc2c3c(ccc2c2ccc4cc5c(cc4c21)OCO5)OCO3,AC50,[2],"6.31 µM [falling, full curve]"
same,AC50,[3],"2.51 µM [falling, full curve] and 3.98 µM [falling, full curve]"
CC(C)(C)c1ccc(OCC(=O)NCC2(N3CCOCC3)CCCCC2)cc1,AC50,[1],"15.8 µM [falling, partial curve]"
COc1ccccc1-c1cc2nc(C)c(CCC(=O)NCCc3cccc(C)c3)c(C)n2n1,AC50,[1],"1.26 µM [falling, full curve]"
CCc1cccc(-n2c(=O)c3cccnc3n2CC(=O)NCc2ccc(C)cc2)c1,AC50,[1],"0.1 µM [rising, full curve, poor fit]"
O=C(CCCCCn1c(=O)c2sccc2n(CC(=O)Nc2cc(C(F)(F)F)ccc2Cl)c1=O)NCc1ccccc1Cl,AC50,[1],"0.794 µM [falling, partial curve]"
Cc1ccc(NC(=O)Cn2cnc3onc(-c4ccc(F)cc4)c3c2=O)c(Cl)c1,AC50,[1],"39.8 µM [falling, single point]"
CCN1CCN(Cc2nc3c(c(=O)n(C)c(=O)n3C)n2Cc2ccc(Cl)cc2Cl)CC1,AC50,[2],"3.98 µM [rising, partial curve]"
same,AC50,[3],"7.94 µM [falling, full curve]"
CC(C)C(=O)Nc1cccc(NC(=O)c2cc3ccccc3o2)c1,AC50,[1],"5.01 µM [falling, partial curve]"
CC(=O)Nc1ccc(Nc2ncnc3c2cnn3C)cc1,AC50,[1],"12.6 µM [rising, partial curve]"
COc1ccc(C2(NC(C)=O)CCN(C(=O)CCC(=O)O)CC2)cc1,AC50,[1],"794 nM [rising, partial curve, poor fit] [measured here: IkB-luc green channel]"
Cc1ccc(C)n1-c1nnc(N2CCCC(C(=O)Nc3ccccc3Br)C2)s1 (stereo not drawn),AC50,[1],"25.1 µM [falling, partial curve]"
CC1CCN(S(=O)(=O)c2ccc3c(c2)N(CC(=O)NCCCN2CCCCC2)C(=O)CS3)CC1,AC50,[1],"7.94 µM [falling, partial curve, poor fit]"
CCOC(=O)CSc1nnc(CNC(=O)Cc2ccccc2)n1-c1ccccc1OC,AC50,[1],"1.26 µM [falling, partial curve]"
Nc1ccc(-c2n[nH]c(=O)c3ccccc23)cc1N,AC50,[1],"10 µM [falling, partial curve]"
CCOc1ccc(S(=O)(=O)NCCc2c(C)[nH]c3c(Cl)cccc23)cc1C,AC50,[1],"31.6 µM [falling, partial curve]"
Cc1ccc(Cl)cc1N1CCN(C(=O)CSc2cc(=O)n(C)c3ccccc23)CC1,AC50,[1],"7.94 µM [falling, partial curve]"
CC(C)c1ccc(OCc2ccc(C(=O)N3CCN(c4ccccn4)CC3)cc2)cc1,AC50,[1],"15.8 µM [falling, partial curve]"
CC1=C(C(=O)Nc2cc(Cl)ccc2C)C(c2sccc2C)n2ncnc2N1 (stereo not drawn),AC50,[1],"1.58 µM [falling, partial curve]"
COc1ccc(C(=O)Nc2ccc3nc(SCC(=O)N(C)c4ccccc4)sc3c2)cc1,AC50,[1],"2.51 µM [falling, full curve]"
CC(C)(C)c1ccc2c(c1)N(CC(=O)NCCCN1CCN(c3ccccc3F)CC1)C(=O)CO2,AC50,[1],"31.6 µM [falling, partial curve]"
O=C1c2ccccc2C(Nc2ccc(F)c(Cl)c2)N1Cc1ccco1 (stereo not drawn),AC50,[1],"3.98 µM [falling, partial curve]"
CCOc1ccc(NC(=O)CSc2nnc(CNC(=O)C34CC5CC(CC(C5)C3)C4)n2CC)cc1,AC50,[1],"12.6 µM [falling, partial curve]"
CCOc1ccc2[nH]c(=O)c(CN(Cc3ccco3)Cc3nnnn3Cc3ccccc3)cc2c1,AC50,[1],"25.1 µM [falling, partial curve]"
N#Cc1c(N)nc(SCC(=O)OCc2ccccc2)c(C#N)c1-c1ccco1,AC50,[1],"12.6 µM [falling, partial curve]"
Cc1cccc2cc(CN(CC3CCCO3)C(c3nnnn3Cc3ccco3)C(C)C)c(=O)[nH]c12 (stereo not drawn),AC50,[2],"31.6 µM [rising, single point]"
same,AC50,[3],"39.8 µM [falling, single point]"
CC(Oc1ccccc1)C(=O)Nc1ccccc1C(=O)OCc1cc(=O)n2nc(C(C)C)sc2n1 (stereo not drawn),AC50,[1],"15.8 µM [falling, partial curve]"
Cc1c(C(=O)N(C)C)sc2c1c(=O)n(-c1ccc(Cl)c(Cl)c1)c(=O)n2CC(=O)N1CCCCC1C (stereo not drawn),AC50,[1],"7.94 µM [rising, partial curve, poor fit]"
CCCC12CN3CC(CCC)(CN(C1)C3c1ccc(OC(C)C)cc1)C2=O (stereo not drawn),AC50,[1],"10 µM [falling, partial curve]"
CSc1nc2c(sc3ccccc32)c(=O)n1Cc1ccc(C)cc1,AC50,[1],"0.0631 µM [falling, full curve, poor fit]"
CCn1c(=O)c(=O)n(CC)c2cc(N3CCCCC3)c(NC(=O)c3ccccc3OC)cc21,AC50,[1],"2 µM [falling, partial curve, poor fit]"
CCOc1ccc(-c2nc(CSCC(=O)NCCc3ccc(OCC)c(OCC)c3)c(C)o2)cc1,AC50,[1],"3.16 µM [falling, partial curve]"
COc1ccccc1-c1c(C)nn2c(N3CCN(c4ccccc4)CC3)cc(C)nc12,AC50,[1],"20 µM [falling, single point]"
O=C(NCCc1ccc(Cl)cc1)C(=O)NCC(c1cccs1)S(=O)(=O)c1cccs1 (stereo not drawn),AC50,[1],"20 µM [falling, single point]"
Cc1ccc(NC(=O)c2noc3c2CCCCC3)cc1,AC50,[1],"3.16 µM [falling, partial curve]"
COc1ccc(C(=O)Nc2cc(-c3nc4ccccc4s3)ccc2OC)cc1,AC50,[1],"2 µM [rising, partial curve]"
O=C(Nc1ccc2nc(SCC(=O)N3CCOCC3)sc2c1)c1ccc(Br)cc1,AC50,[1],"0.2 µM [falling, full curve, poor fit]"
COC(=O)c1ccc(NC(=O)CCc2c(C)nc3c(c(C)nn3C(C)(C)C)c2C)cc1,AC50,[1],"20 µM [falling, partial curve]"
CCN(C(=O)CSc1nc(-c2ccccc2)no1)c1ccccc1,AC50,[1],"12.6 µM [falling, partial curve]"
O=c1c2ccccc2nnn1CSc1nnc(-c2ccc3c(c2)OCO3)o1,AC50,[1],"25.1 µM [falling, partial curve]"
O=S(=O)(Nc1ccc(-c2nc3ccccc3o2)cc1)c1ccccc1,AC50,[1],"31.6 µM [falling, single point]"
Cc1ccccc1CSc1nc(-c2cccc(F)c2)nc2c1Cc1c(CO)cnc(C)c1O2,AC50,[1],"39.8 µM [falling, single point]"
COc1ccc(OC)c(CNC(=O)c2nn(C)c3c2CS(=O)(=O)c2ccccc2-3)c1,AC50,[1],"15.8 µM [falling, partial curve]"
COc1ccc(N2CCN(C(=O)CN3C(=O)COc4ccc(S(=O)(=O)N5CCC(C)CC5)cc43)CC2)cc1,AC50,[1],"31.6 µM [falling, single point]"
Cc1ccc2nc(-c3ccc(C)o3)c(Nc3ccc4c(c3)OCCO4)n2c1,AC50,[1],"15.8 µM [falling, partial curve]"
CCOc1cc(CNC(=O)c2ccc3nc(C(C)C)oc3c2)cc(OCC)c1OCC,AC50,[1],"20 µM [falling, partial curve, poor fit]"
CCCCN(CC)C(=O)c1nn(-c2ccc(OC)cc2)c(=O)c2c1c1ccccc1n2C,AC50,[1],"7.94 µM [falling, single point]"
COc1ccc(OC)c(CNC(=O)c2ccc3c(c2)c(C)c(C)n3C)c1,AC50,[1],"15.8 µM [falling, partial curve]"
O=C(CSc1nc2ncccc2o1)Nc1cccc(C(F)(F)F)c1,AC50,[1],"3.16 µM [rising, partial curve]"
CCS(=O)(=O)c1oc(-c2ccc(F)cc2)nc1S(=O)(=O)c1ccccc1,AC50,[1],"5.01 µM [falling, partial curve]"
Cc1ccc(NC(=O)C2CCCN2S(=O)(=O)c2ccc3c(c2)CCC(=O)N3)cc1Cl (stereo not drawn),AC50,[1],"12.6 µM [falling, partial curve]"
N/C(=N\c1nc2ccccc2o1)NC(=O)C(Cc1ccccc1)N1C(=O)c2ccccc2C1=O (stereo not drawn),AC50,[1],"5.01 µM [falling, full curve]"
CC(=O)Nc1cccc(-n2cc3c(c2-c2ccccc2Cl)c(=O)n(C)c(=O)n3C)c1,AC50,[1],"2.51 µM [rising, full curve]"

# An excerpt of these results, with bars between the fields:
smiles | measurement | setting | value
C[n+]1cc2c3c(ccc2c2ccc4cc5c(cc4c21)OCO5)OCO3 | AC50 | [2] | 6.31 µM [falling, full curve]
CC(C)(C)c1ccc2c(c1)N(CC(=O)NCCCN1CCN(c3ccccc3F)CC1)C(=O)CO2 | AC50 | [1] | 31.6 µM [falling, partial curve]
CSc1nc2c(sc3ccccc32)c(=O)n1Cc1ccc(C)cc1 | AC50 | [1] | 0.0631 µM [falling, full curve, poor fit]
O=S(=O)(Nc1ccc(-c2nc3ccccc3o2)cc1)c1ccccc1 | AC50 | [1] | 31.6 µM [falling, single point]
